At least one structure is not confirmed: it was looked up by name or label, or the drawing left a doubt.
Experiment: Observation of liquid crystal phase of the coating liquid under a polarizing microscope
Type: physicochemical
Settings: 30 mass % in ion-exchanged water, observed at 23° C.
From the text: A small amount of the coating liquid was sandwiched between two glass slides, and a liquid crystal phase thereof was observed using a polarizing microscope (manufactured by Olympus Corporation, product name: “OPTIPHOT-POL”) equipped with a large-sized sample heating/cooling stage for microscope (manufactured by Japan High Tech Co., Ltd., product: name “10013L”).

**Q.** With `O=C1c2ccc3c4ccc5c6c(ccc(c7ccc(c2c37)C(=O)N1c1ccncc1)c64)C(=O)N(c1ccncc1)C5=O` [formula (6), perylenetetracarboxylic acid diimide] as the compound, how does the “liquid crystal phase of coating liquid” value read?
**A.** The value was “no liquid crystal phase”.

Reference: US20120313040A1, “COATING LIQUID, OPTICAL ANISOTROPIC FILM AND IMAGE DISPLAY DEVICE” (NITTO DENKO CORPORATION, priority 2011, published 2012)
